# Values joined by “and” are separate entries in the source; they are usually repeats but may differ in a detail not shown here. Identical values can stand only once. Among all 71,000 compounds or so, about 310 (0.44%) were called active. Inconclusive means that the source gave no clear call. Such entries were picked first, then a sample of the others. Calls follow the shape of the dose curve; as a rule, active = well fitted curve in either direction with a large enough effect; inconclusive = small, poorly fitted or top-dose-only effect, or another doubt; inactive = flat fitted curve, though single readings scatter. A potency beside an inconclusive call is a rough fit, not a confirmed value.
# System: Hsp90 C-terminal peptide / TPR2A (Hop) interaction, human
# Assay: qHTS Assay for Disrupters of an Hsp90 Co-Chaperone Interaction
# Conditions: AlphaScreen TPR2A-His6 binding biotin-Hsp90 C-terminal peptide; activity change, negative = inhibition: at 57 µM (top of the series) unless noted
# % is scaled to controls: 0 for no effect and ±100 for the full control effect; potency is read from the fitted curve at half-maximal effect.
Structure (SMILES),"activity change, negative = inhibition",Potency
OCCN1CCN(C(=S)c2ccc(Cl)c(Cl)c2)CC1,inconclusive: 48.5%,–
CCCN(CC(=O)c1cc(C)n(C)c1C)S(=O)(=O)c1cccc(C(F)(F)F)c1,inconclusive: 17.5%,–
O=C1CC(c2ccccc2)CN1Cc1ccccc1 (stereo unspecified),inconclusive: 47.8%,–
COc1ccc(OCC(=O)Nc2ccccc2OC(F)F)cc1,inconclusive: 46.5%,–
CCCC[C@@H]1C[C@H]1C(NC(=O)c1ccccc1)c1ccc(C(=O)OC)cc1 (stereo partly specified),inactive: 0.201%,–
CCC(C)Oc1cccc(OCCCCN2C(=O)NC(C)(C)C2=O)c1 (stereo unspecified),inconclusive: 56.8%,–
N#Cc1ccc(NC(=O)COC(=O)C2=COCCO2)cc1,inconclusive: 42.6%,–
CCc1ccc2oc(=O)cc(CN(C)Cc3ccccc3)c2c1,–,"inconclusive: 31.6 µM [activator, single point]"
COc1cc2cc(C(c3nnnn3C3CCCC3)N3CCc4ccccc43)c(=O)[nH]c2cc1OC (stereo unspecified),inconclusive: 22.7%,–
Cc1ccc(S(=O)(=O)N2CCCCC2)cc1C(=O)Nc1ccc2cn[nH]c2c1,inconclusive: 32.5%,–
CC(C)(C)c1ccc(-c2nnc3sc(-c4ccccn4)nn23)cc1,–,active: 2 µM
Cc1onc(-c2c(F)cccc2Cl)c1C(=O)NCc1ccco1,inconclusive: 30%,–
O=S(=O)(c1ccc(Br)s1)N1CCc2ccccc2C1,–,"inconclusive: 31.6 µM [activator, single point]"
Cc1cc(C)c2nc(N3CCCC3)c(C#N)cc2c1,inactive: 3.01%,–
Cc1noc(C)c1S(=O)(=O)N1CCC(Cc2ccccc2)CC1,–,"inconclusive: 31.6 µM [activator, single point]"
Cc1ccc2[nH]c3c(NCCCN4CCCC4=O)ncnc3c2c1,inconclusive: 40%,–
O=C(Nc1cccc(Br)c1)c1ccn[nH]1,inactive: 1.71%,–
Cc1ccccc1-n1c(SCC(=O)c2cc(C)n(C)c2C)nnc1-c1ccncc1,inconclusive: 21.4%,–
CCOC(=O)Nc1ccc(S(=O)(=O)Nc2cc(C)on2)cc1,inconclusive: 43%,–
COc1cccc(C(=O)Cn2c(=N)n(C)c3ccccc32)c1,inactive: -4.94%,–
CCOC(=O)C(/C(N)=N/C(=O)Nc1ccccc1)=C(\C)O,inactive: -2.46%,–
CCCCNC(=O)CCCn1c(=S)[nH]c2cc3c(cc2c1=O)OCO3,inconclusive: 42.6%,–

Structure (SMILES),"activity change, negative = inhibition",Potency
O=S(=O)(O)c1cc(S(=O)(=O)O)c2c(N=Nc3cccc4ccccc34)c(O)ccc2c1,–,"inconclusive: 3.98 µM [inhibitor, partial curve]"
Cc1nc(CNS(=O)(=O)c2cccnc2)cs1,inconclusive: 51.5%,–
COc1ccc(NC(=O)N2CCCc3ccccc32)cc1,inconclusive: 43.2%,–
COc1ccc2noc3c2c1C(=O)c1ccccc1-3,–,"inconclusive: 31.6 µM [inhibitor, single point]"
CN1C(=O)c2ccccc2C(C(=O)NCC2CCCO2)C1c1c[nH]c2ccccc12 (stereo unspecified),inconclusive: 39.8%,–
Cc1ccc2nc(-c3ccc(N)cc3)sc2c1S(=O)(=O)O,inactive: -2%,–
COC(=O)c1ccc(C(NC(=O)OCc2ccccc2)/C(C)=C/[C@@H](C)C(=O)NCc2cc(F)cc(F)c2)cc1 (stereo partly specified),inactive: 7.26%,–
O=S(=O)(O)c1cc(N=[N+]([O-])c2cc(S(=O)(=O)O)c3ccccc3c2)cc2ccccc12,inactive: -12.4% [at 11 µM],–
COc1ccc(CCN(C)CCCOc2ccc(S(=O)(=O)c3[nH]c4ccccc4c3C(C)C)cc2)cc1OC,–,"inconclusive: 20 µM [inhibitor, partial curve]"
CC(C)c1nnc(NC(=O)c2cnccn2)s1,–,"inconclusive: 31.6 µM [inhibitor, single point]"
C=C(Br)Cn1c(CC(C)C)nc2ccccc21,inconclusive: 45.5%,–
CC(=O)Oc1ccc(C(=O)O)cc1OC(C)=O,inconclusive: 49.9%,–
CCC(c1nnnn1C(C)(C)C)N1CCN(c2cc(Cl)ccc2C)CC1 (stereo unspecified),inactive: 12.6%,–
O=C(COc1ccccc1Br)NCc1ccco1,inconclusive: 40.8%,–
CCC(=O)c1ccc(N2CCCCCC2)c(F)c1,–,"inconclusive: 20 µM [activator, single point]"
CC(C)C(=O)c1c(C(C)C)nn2ccccc12,inconclusive: 80.8%,–
Cn1c(=O)c(-c2cc(F)cc(F)c2)nc2cnc(N3CCOCC3)nc21,inactive: -1.97%,–
CCOc1ccccc1N1C(=O)CC(Nc2ccc(N3CCOCC3)cc2)C1=O (stereo unspecified),inactive: -13.5% [at 11 µM],–
CCN(CC)CCn1c(=S)[nH]c2cc3c(cc2c1=O)OCO3,inconclusive: 43.8%,–
CCOc1cc(N2CCOCC2)c(OCC)cc1NC(=O)COc1cccc2cccnc12,–,"inconclusive: 25.1 µM [inhibitor, single point]"
O=c1n(-c2cccc(Cl)c2)c(=O)n2n1CCC2,inconclusive: 53.5%,–
CC#CCN(CC#CC)S(=O)(=O)c1ccc(-n2cnnn2)c(OC)c1,inconclusive: 57%,–

Structure (SMILES),"activity change, negative = inhibition",Potency
Cn1c(SCC(=O)NCc2cccs2)nnc1-c1ccco1,inconclusive: 47.5%,–
Cc1cc(C(=O)Nc2c(C)n(C)n(-c3ccccc3)c2=O)cs1,inconclusive: 26.5%,–
CC(=O)O[C@H]1CC[C@@]2(C)C(=CC[C@@H]3[C@@H]4CC[C@H](c5cc(C(F)(F)F)n(C(C)=O)n5)[C@]4(C)CC[C@@H]32)C1,inactive: -3.19% [at 11 µM],–
COc1ccc(-c2cn3ccccc3n2)cc1OC,inactive: -3.34%,–
Cc1nc(SCC#N)c2c3c(sc2n1)CCC3,inconclusive: 42.6%,–
c1cncc(CNc2ccnc(-c3ccc4c(c3)OCO4)n2)c1,inactive: -6.94%,–
O=C(c1ccc(F)cc1)c1cn[nH]c1-c1ccccc1O,inactive: -3.12%,–
COc1cc(NC(=O)c2cc(CC(C)C)on2)c(OC)cc1Cl,inconclusive: 54% [at 2.3 µM],–
Cc1nn(C)c(C)c1NS(=O)(=O)c1ccccc1,inactive: -5.66%,–
O=C(Nc1nc2ccccc2n1CCOc1ccc(Cl)cc1)c1ccco1,inactive: -4.79%,–
Cc1cc(=O)oc2cc(OCC(=O)N3c4ccccc4CC3C)ccc12 (stereo unspecified),inconclusive: 52.4%,–
O=C(OCc1csc(-c2ccccc2)n1)c1cccs1,–,"inconclusive: 31.6 µM [activator, single point]"
Cn1c(-c2ccc(Cl)cc2)cnc1N,inconclusive: -12.1%,–
COc1cccc(-c2cncnc2NCCc2c[nH]c3ccc(OC)cc23)c1,inactive: -23.2%,–
Cc1ccc(C(=O)Cn2c3c(sc2=N)CCCC3)cc1,inactive: -0.449%,–
CC1CCCN(c2nc3ccsc3c(=O)s2)C1 (stereo unspecified),–,"inconclusive: 20 µM [activator, partial curve]"
CCN(CC)S(=O)(=O)c1ccc2oc(SCc3ccc(F)cc3)nc2c1,–,"inconclusive: 25.1 µM [activator, single point]"
O=C(O)CSc1nnc(C2CC2)n1-c1ccccc1,inconclusive: 41.1%,–
C[C@@H]1CCN=C(N)S1,inconclusive: 69.8%,–
CC(=O)c1c(C)n(-c2ccccc2)c2ccc(O)cc12,inconclusive: 36.8%,–
O=C(Nc1ccc2nc3n(c(=O)c2c1)CCCCC3)c1ccccn1,inactive: -1.27%,–
O=C1NC(c2cccs2)Nc2sc3c(c21)CCCC3 (stereo unspecified),inconclusive: 40.7%,–

Structure (SMILES),"activity change, negative = inhibition",Potency
CCOC(=O)N1CCN(Cc2nc(-c3ccc(C)cc3)no2)CC1,inconclusive: 42.8%,–
N#Cc1nc(-c2ccco2)oc1NCCCn1ccnc1,–,"inconclusive: 25.1 µM [inhibitor, single point]"
CO/N=C(\C(=O)N[C@@H]1C(=O)N2C(C(=O)O)=C(CSc3nc(=O)c(O)nn3C)CS[C@@H]12)c1csc(N)n1,inactive: -7.67%,–
CCOc1ccc(-n2c(SCC(=O)NC(C)CC)nc3n[nH]c(C)c3c2=N)cc1 (stereo unspecified),inconclusive: 42.9%,–
Fc1ccc(-c2cc(C(F)(F)F)nc(NCC3CCCO3)n2)cc1 (stereo unspecified),–,"inconclusive: 25.1 µM [activator, single point]"
Cc1ccc2c(c1)NC(=O)C(CC(=O)NCCCN1CCN(c3cc(C)ccc3C)CC1)O2 (stereo unspecified),inconclusive: 19.6%,–
Fc1cccc(Cl)c1/C=N\N=C1c2ccccc2-c2ccccc21,–,"inconclusive: 3.16 µM [inhibitor, single point]"
COc1ccc2c(c1OC)C(=O)N(c1ccccn1)C2,inconclusive: 46.5%,–
CN1CCN(CCN2CCn3c2nc2ccccc23)CC1,inconclusive: 42.3%,–
Cn1c(C(=O)NCCC2=CCCCC2)cc2c(=O)n3ccccc3nc21,inactive: 2.55%,–
CCCN(CC1CC1)c1nc(C)nc(Nc2c(Cl)cc(Cl)cc2Cl)c1Cl,–,"inconclusive: 31.6 µM [activator, single point] and inconclusive: 31.6 µM [activator, partial curve]"
CNC(=O)CSc1nnc(-c2cc(C)cc(C)c2)o1,inconclusive: 76.4%,–
NC(=O)SCC(=O)Nc1cccc(Cl)c1,inconclusive: 45.5%,–
CCC(C)[C@H](NC(=O)NCc1ccccc1Cl)C(=O)O (stereo partly specified),inconclusive: 43.8%,–
CCOc1ccc(CNc2ccc(N3CCCC3)cc2)cc1,–,"inconclusive: 15.8 µM [inhibitor, partial curve]"
CCC/C=C(\CCC)C(NS(=O)(=O)c1ccc(Cl)cc1)c1ccc(C(=O)OC)cc1 (stereo unspecified),–,"inconclusive: 20 µM [activator, single point]"
CS(=O)(=O)N1CCN(C(=O)c2csc3ccccc23)CC1,–,"inconclusive: 39.8 µM [inhibitor, single point]"
COc1ccccc1-n1c(CNC(=O)c2ccccc2)nnc1SCC(=O)Nc1nnc(C)s1,inconclusive: 48.3%,–
O=C(Cn1nc(C(F)(F)F)c2c1CCCC2)Nc1ccc2c(c1)OCO2,inactive: 1.01%,–
O=C(CCn1c(=O)sc2ccccc21)Nc1nccs1,inactive: -1.82%,–

# Source: PubChem BioAssay AID595 (National Center for Advancing Translational Sciences (NCATS), 2007)
